No constants are given. Whether binding was seen depends on the method and setting. A result given as binding can be weak or reduced; the word gives no strength. For some assays here: In cells and extracts the contact can be indirect.
Key:
[1] = molecular target: T1, Pikm-1-2xV5 (rice (Oryza sativa)) (UniProt B5UBC1); assay: co-IP
T1 sequence: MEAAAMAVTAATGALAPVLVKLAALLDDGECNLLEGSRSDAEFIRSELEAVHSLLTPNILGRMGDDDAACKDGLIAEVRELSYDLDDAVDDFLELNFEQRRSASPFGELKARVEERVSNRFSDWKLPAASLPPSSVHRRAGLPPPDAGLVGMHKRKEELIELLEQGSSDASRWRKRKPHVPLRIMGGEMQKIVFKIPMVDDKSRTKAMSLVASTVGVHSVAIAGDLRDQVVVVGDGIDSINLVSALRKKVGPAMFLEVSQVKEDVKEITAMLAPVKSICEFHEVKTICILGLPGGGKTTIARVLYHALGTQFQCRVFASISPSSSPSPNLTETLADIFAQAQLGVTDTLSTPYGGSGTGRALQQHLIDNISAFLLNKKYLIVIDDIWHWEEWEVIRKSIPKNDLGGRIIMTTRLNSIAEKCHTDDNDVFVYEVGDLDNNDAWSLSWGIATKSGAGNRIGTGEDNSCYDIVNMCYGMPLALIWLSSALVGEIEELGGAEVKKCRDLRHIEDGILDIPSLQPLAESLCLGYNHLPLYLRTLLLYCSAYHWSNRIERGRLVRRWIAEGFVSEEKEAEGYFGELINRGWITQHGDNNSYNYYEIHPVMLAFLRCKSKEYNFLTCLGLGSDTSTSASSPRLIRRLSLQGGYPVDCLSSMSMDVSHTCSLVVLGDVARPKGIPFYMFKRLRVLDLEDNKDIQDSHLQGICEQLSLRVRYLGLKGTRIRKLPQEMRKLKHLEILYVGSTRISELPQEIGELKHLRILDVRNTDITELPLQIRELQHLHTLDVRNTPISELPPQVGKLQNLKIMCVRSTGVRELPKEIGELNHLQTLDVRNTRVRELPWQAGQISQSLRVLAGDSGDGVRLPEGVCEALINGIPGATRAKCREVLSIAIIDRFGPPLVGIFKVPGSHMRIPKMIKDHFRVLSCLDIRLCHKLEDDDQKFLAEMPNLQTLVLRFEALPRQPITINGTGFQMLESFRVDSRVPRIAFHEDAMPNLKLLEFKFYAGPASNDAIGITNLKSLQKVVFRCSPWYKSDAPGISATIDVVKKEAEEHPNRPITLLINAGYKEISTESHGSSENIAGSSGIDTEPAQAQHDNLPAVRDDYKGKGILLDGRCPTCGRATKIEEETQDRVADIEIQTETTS

By UniProt entry, the sequences of proteins in these tests, tags left out. Where a name states a change or a piece, a line headed by the entry shows the natural chain unless it says otherwise.
UniProt P0DO08: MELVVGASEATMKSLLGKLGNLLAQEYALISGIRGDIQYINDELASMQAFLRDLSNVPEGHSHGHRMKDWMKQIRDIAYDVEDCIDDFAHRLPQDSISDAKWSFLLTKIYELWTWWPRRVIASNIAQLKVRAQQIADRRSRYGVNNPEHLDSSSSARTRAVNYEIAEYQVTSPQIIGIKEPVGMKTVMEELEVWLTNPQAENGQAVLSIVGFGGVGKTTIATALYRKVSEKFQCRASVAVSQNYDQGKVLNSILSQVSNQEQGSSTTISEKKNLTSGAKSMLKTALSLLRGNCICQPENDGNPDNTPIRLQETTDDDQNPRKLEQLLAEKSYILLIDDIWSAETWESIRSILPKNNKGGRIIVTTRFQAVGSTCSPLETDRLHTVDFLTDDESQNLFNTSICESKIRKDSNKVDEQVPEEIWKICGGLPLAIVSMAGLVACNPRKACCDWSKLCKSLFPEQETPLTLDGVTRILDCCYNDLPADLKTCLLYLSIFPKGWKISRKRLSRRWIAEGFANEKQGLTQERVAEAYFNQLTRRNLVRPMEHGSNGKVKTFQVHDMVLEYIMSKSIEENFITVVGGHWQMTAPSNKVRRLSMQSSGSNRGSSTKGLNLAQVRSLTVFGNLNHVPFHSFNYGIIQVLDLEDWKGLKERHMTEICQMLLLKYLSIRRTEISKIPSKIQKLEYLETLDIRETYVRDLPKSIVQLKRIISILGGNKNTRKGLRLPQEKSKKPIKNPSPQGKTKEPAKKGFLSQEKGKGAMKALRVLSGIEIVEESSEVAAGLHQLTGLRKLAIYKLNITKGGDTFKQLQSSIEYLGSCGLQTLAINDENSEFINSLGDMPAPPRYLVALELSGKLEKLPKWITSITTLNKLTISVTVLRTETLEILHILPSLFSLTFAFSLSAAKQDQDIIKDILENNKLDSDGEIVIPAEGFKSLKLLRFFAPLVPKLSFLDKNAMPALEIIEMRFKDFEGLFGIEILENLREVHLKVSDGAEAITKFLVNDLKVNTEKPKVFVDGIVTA

[2] = molecular target: T1, Pikm-1-2xV5 (rice (Oryza sativa)); assay: native gel or EMSA

Pikm-2-6xHA (from UniProt P0DO08) (receptor)
binding [1]: binds | binding [2]: binds
